Test results reported in the supplement of paper PMC4604168 (melanoma cell lines).
This is one part of the list. Many values rest on one well or one pass, so single values are uncertain.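 Imaging used 1,536-well plates; nuclei positive for cleaved PARP by antibody were divided by total DNA-stained nuclei to yield the apoptosis fraction. Doses for screening kept most cells viable, and cell lines differ markedly in resting and induced cleaved-PARP levels.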

Experiments:
Assay in all cases: cleaved PARP positive nuclei fraction relative to DMSO control; melanoma cells; higher = more apoptosis
Conditions in all cases: library dose: low library concentration; 72 h
[1] = test system: MZ2-MEL
[2] = test system: MeWo
[3] = test system: RPMI7951
[4] = test system: RVH-421
[5] = test system: SkMel28
[6] = test system: SkMel2
[7] = test system: SkMel30
[8] = test system: SkMel5
[9] = test system: UACC257
[10] = test system: UACC62
[11] = test system: WM115
[12] = test system: WM1716
[13] = test system: WM1745
[14] = test system: WM3526
[15] = test system: WM3619
[16] = test system: WM451Lu

Row | SMILES | cleaved PARP positive nuclei fraction [1] [%] | cleaved PARP positive nuclei fraction [2] [%] | cleaved PARP positive nuclei fraction [3] [%] | cleaved PARP positive nuclei fraction [4] [%] | cleaved PARP positive nuclei fraction [5] [%] | cleaved PARP positive nuclei fraction [6] [%] | cleaved PARP positive nuclei fraction [7] [%] | cleaved PARP positive nuclei fraction [8] [%] | cleaved PARP positive nuclei fraction [9] [%] | cleaved PARP positive nuclei fraction [10] [%] | cleaved PARP positive nuclei fraction [11] [%] | cleaved PARP positive nuclei fraction [12] [%] | cleaved PARP positive nuclei fraction [13] [%] | cleaved PARP positive nuclei fraction [14] [%] | cleaved PARP positive nuclei fraction [15] [%] | cleaved PARP positive nuclei fraction [16] [%]
1 | Cn1sc(=O)n(Cc2ccccc2)c1=O + O=S(=O)(c1ccccc1)N(CC(F)(F)F)c1ccc(C(O)(C(F)(F)F)C(F)(F)F)cc1 [T0901317] (first compound 0.4 µM, partner dose 1.4 µM) | 34.7 | 84.5 | 55.8 | 97.8 | 156 | 242 | 118 | 88.4 | 122 | 159 | 84.7 | 33.4 | 115 | 183 | 90.8 | 72.2
2 | Cn1sc(=O)n(Cc2ccccc2)c1=O + c1cc(-c2cnn3cc(-c4ccc(OCCN5CCCCC5)cc4)cnc23)ccn1 [Dorsomorphin] (first compound 0.4 µM, partner dose 0.4 µM) | 60 | 38.8 | 43.9 | 112 | 283 | 38.9 | 61.8 | 73.5 | 62.1 | 116 | 53.1 | 141 | 110 | 78.8 | 80.9 | 79
3 | CN(c1ncccc1CNc1nc(Nc2ccc3c(c2)CC(=O)N3)ncc1C(F)(F)F)S(C)(=O)=O + CCc1ccc(CCOc2ccc(CC3SC(=O)NC3=O)cc2)nc1 [pioglitazone] (first compound 0.08 µM, partner dose 2 µM) | 138 | 105 | 41.2 | 84.3 | 163 | 177 | 128 | 106 | 135 | 543 | 91.5 | 239 | 114 | 74.1 | 20.5 | 109
4 | CCN(CC)CCNC(=O)c1c(C)[nH]c(/C=C2\C(=O)Nc3ccc(F)cc32)c1C [sunitinib] + O=C(Nc1cccc(Cl)c1)Nc1ncc(CCNc2ncnc3ccsc23)s1 [SNS314] (first compound 0.4 µM, partner dose 0.0008 µM) | 110 | 54 | 167 | 103 | 196 | 61.2 | 41.7 | 82.8 | 1700 | 276 | 302 | 41.8 | 108 | 64.1 | 63 | 231
5 | CS(=O)(=O)c1ccc(C(=O)Nc2ccc(Cl)c(-c3ccccn3)c2)c(Cl)c1 [vismodegib] + COc1cc2ncnc(Nc3ccc(Oc4ccccc4)cc3)c2cc1OC [SrcI1] (first compound 1 µM, partner dose 2 µM) | 107 | 96.1 | 57.3 | 196 | 64.6 | 53.7 | 23.6 | 78.2 | 53.3 | 172 | 152 | 43.1 | 91.8 | 73 | 101 | 65
6 | NC1(c2ccc(-c3nc4ccn5c(=O)[nH]nc5c4cc3-c3ccccc3)cc2)CCC1 + Cc1cc([N+](=O)[O-])ccc1NS(=O)(=O)c1cc(Cl)ccc1Cl [FH535] (first compound 0.4 µM, partner dose 1 µM) | 88.7 | 82.4 | 91.1 | 173 | 258 | 116 | 29.8 | 210 | 173 | 469 | 102 | 94.3 | 90.7 | 89.5 | 96 | 34.7
7 | Cn1cnc2c(F)c(Nc3ccc(Br)cc3Cl)c(C(=O)NOCCO)cc21 [selumetinib] + O=C(Nc1cccc(Cl)c1)Nc1ncc(CCNc2ncnc3ccsc23)s1 [SNS314] (first compound 0.015 µM, partner dose 0.0008 µM) | 196 | 302 | 336 | 160 | 15.8 | 129 | 101 | 61.2 | 96.5 | 112 | 152 | 42.2 | 219 | 128 | 122 | 107
8 | NC1(c2ccc(-c3nc4ccn5c(=O)[nH]nc5c4cc3-c3ccccc3)cc2)CCC1 + c1cc(-c2cnn3cc(-c4ccc(OCCN5CCCCC5)cc4)cnc23)ccn1 [Dorsomorphin] (first compound 0.4 µM, partner dose 0.4 µM) | 30.7 | 62.4 | 81.6 | 133 | 212 | 64.2 | 44.5 | 91.5 | 95.6 | 257 | 133 | 105 | 97.5 | 226 | 134 | 106
9 | Cn1sc(=O)n(Cc2ccccc2)c1=O + C[C@@H]1CCN(C(=O)CC#N)C[C@@H]1N(C)c1ncnc2[nH]ccc12 [CP690550] (first compound 0.4 µM, partner dose 1 µM) | 30 | 110 | 49.7 | 38.4 | 66.7 | 164 | 64.5 | 37.2 | 82.1 | 72.4 | 106 | 82.2 | 92.8 | 117 | 77.5 | 177
10 | C[C@@H](N)c1ccc(C(=O)Nc2ccnc3[nH]ccc23)cc1 + NCC(=O)Nc1ccc(-n2nc(C(F)(F)F)cc2-c2ccc3c(ccc4ccccc43)c2)cc1 [OSU03012] (first compound 0.4 µM, partner dose 1 µM) | 278 | 213 | 37.7 | 166 | 179 | 297 | 132 | 157 | 186 | 76.2 | 115 | 175 | 102 | 153 | 92.3 | 931
11 | C[C@@H](N)c1ccc(C(=O)Nc2ccnc3[nH]ccc23)cc1 + N#Cc1c(O)c2c(-c3ccc(-c4ccccc4O)cc3)csc2[nH]c1=O [A769662] (first compound 0.4 µM, partner dose 2 µM) | 169 | 105 | 90 | 220 | 612 | 189 | 60.2 | 104 | 366 | 369 | 63 | 260 | 103 | 224 | 98.1 | 107
12 | Cn1sc(=O)n(Cc2ccccc2)c1=O + COc1cc(N2CCC(N3CCN(C)CC3)CC2)ccc1Nc1ncc(Cl)c(Nc2ccccc2S(=O)(=O)C(C)C)n1 [NVP-TAE684] (first compound 0.4 µM, partner dose 0.08 µM) | 134 | 42.4 | 151 | 91.4 | 321 | 79.1 | 81.7 | 80.7 | 85.1 | 119 | 184 | 89.1 | 89.8 | 70.1 | 80.8 | 459
13 | Cn1cnc2c(F)c(Nc3ccc(Br)cc3Cl)c(C(=O)NOCCO)cc21 [selumetinib] + CC(C)(C)c1cnc(CSc2cnc(NC(=O)C3CCNCC3)s2)o1 [SNS-032] (first compound 0.015 µM, partner dose 0.01 µM) | 332 | 58.1 | 143 | 99.1 | 60.1 | 95.7 | 75.2 | 216 | 190 | 147 | 145 | 153 | 95.2 | 80.5 | 121 | 97.1
14 | CS(=O)(=O)c1ccc(C(=O)Nc2ccc(Cl)c(-c3ccccn3)c2)c(Cl)c1 [vismodegib] + COc1ccc2c(c1)CCC1C2CCC2(C)C(NCCCCCCN3C(=O)C=CC3=O)CCC12 [U73122] (first compound 1 µM, partner dose 0.4 µM) | 87.4 | 58 | 59.4 | 165 | 34.4 | 122 | 60.6 | 77.8 | 117 | 58.5 | 112 | 62.7 | 90.1 | 113 | 82.4 | 37.2
15 | NC1(c2ccc(-c3nc4ccn5c(=O)[nH]nc5c4cc3-c3ccccc3)cc2)CCC1 + OCCn1cc(-c2cnc3nnn(Cc4ccc5ncccc5c4)c3n2)cn1 [PF04217903] (first compound 0.4 µM, partner dose 1 µM) | 99.9 | 81.8 | 206 | 96.8 | 174 | 39.5 | 281 | 166 | 71.2 | 106 | 232 | 145 | 94.1 | 359 | 99.9 | 24.9
16 | NC1(c2ccc(-c3nc4ccn5c(=O)[nH]nc5c4cc3-c3ccccc3)cc2)CCC1 + Cc1ccc(NC(=O)c2cccc(N(C)C)c2)cc1NC(=O)c1ccc(O)cc1 [ZM336372] (first compound 0.4 µM, partner dose 2 µM) | 138 | 33.5 | 177 | 93.5 | 73 | 84.4 | 84.2 | 35.4 | 59.1 | 179 | 128 | 224 | 95.7 | 134 | 92.6 | 55.6
17 | CCN(CC)CCNC(=O)c1c(C)[nH]c(/C=C2\C(=O)Nc3ccc(F)cc32)c1C [sunitinib] + Oc1nc(-c2ccc(C(F)(F)F)cc2)nc2c1CSCC2 [XAV939] (first compound 0.4 µM, partner dose 2 µM) | 48 | 437 | 64.5 | 56.6 | 360 | 99.9 | 103 | 103 | 113 | 380 | 68.7 | 104 | 131 | 198 | 93.8 | 49.4
18 | CCN(CC)CCNC(=O)c1c(C)[nH]c(/C=C2\C(=O)Nc3ccc(F)cc32)c1C [sunitinib] + Cc1ccc(NC(=O)c2cccc(N(C)C)c2)cc1NC(=O)c1ccc(O)cc1 [ZM336372] (first compound 0.4 µM, partner dose 2 µM) | 69.3 | 105 | 122 | 69.7 | 74.4 | 86.4 | 84.9 | 122 | 51 | 74 | 136 | 48.6 | 106 | 188 | 105 | 50.1
19 | CN(c1ncccc1CNc1nc(Nc2ccc3c(c2)CC(=O)N3)ncc1C(F)(F)F)S(C)(=O)=O + O=C(Nc1ccccc1)c1cc([N+](=O)[O-])ccc1Cl [GW9662] (first compound 0.08 µM, partner dose 2 µM) | 133 | 162 | 46.3 | 162 | 102 | 39.5 | 82.8 | 72.2 | 279 | 179 | 75.5 | 100 | 94.7 | 61.2 | 77.8 | 473

Full records, quoted from the list. Values in the order: cleaved PARP positive nuclei fraction [1] [%]	cleaved PARP positive nuclei fraction [2] [%]	cleaved PARP positive nuclei fraction [3] [%]	cleaved PARP positive nuclei fraction [4] [%]	cleaved PARP positive nuclei fraction [5] [%]	cleaved PARP positive nuclei fraction [6] [%]	cleaved PARP positive nuclei fraction [7] [%]	cleaved PARP positive nuclei fraction [8] [%]	cleaved PARP positive nuclei fraction [9] [%]	cleaved PARP positive nuclei fraction [10] [%]	cleaved PARP positive nuclei fraction [11] [%]	cleaved PARP positive nuclei fraction [12] [%]	cleaved PARP positive nuclei fraction [13] [%]	cleaved PARP positive nuclei fraction [14] [%]	cleaved PARP positive nuclei fraction [15] [%]	cleaved PARP positive nuclei fraction [16] [%]
Cn1sc(=O)n(Cc2ccccc2)c1=O + C[C@@H]1CCN(C(=O)CC#N)C[C@@H]1N(C)c1ncnc2[nH]ccc12 [CP690550] (first compound 0.4 µM, partner dose 1 µM) as listed: 30	110	49.7	38.4	66.7	164	64.5	37.2	82.1	72.4	106	82.2	92.8	117	77.5	177
NC1(c2ccc(-c3nc4ccn5c(=O)[nH]nc5c4cc3-c3ccccc3)cc2)CCC1 + c1cc(-c2cnn3cc(-c4ccc(OCCN5CCCCC5)cc4)cnc23)ccn1 [Dorsomorphin] (first compound 0.4 µM, partner dose 0.4 µM) as listed: 30.7	62.4	81.6	133	212	64.2	44.5	91.5	95.6	257	133	105	97.5	226	134	106
